# Results reported in the supplement of paper PMC12819154, “High-throughput peptide-centric local stability assay extends protein–ligand identification to membrane proteins, tissues and bacteria” (Nature Structural & Molecular Biology, 2025).
# By UniProt entry, the sequences of proteins in these tests, tags left out. Where a name states a change or a piece, a line headed by the entry shows the natural chain unless it says otherwise.
# UniProt Q7L9L4: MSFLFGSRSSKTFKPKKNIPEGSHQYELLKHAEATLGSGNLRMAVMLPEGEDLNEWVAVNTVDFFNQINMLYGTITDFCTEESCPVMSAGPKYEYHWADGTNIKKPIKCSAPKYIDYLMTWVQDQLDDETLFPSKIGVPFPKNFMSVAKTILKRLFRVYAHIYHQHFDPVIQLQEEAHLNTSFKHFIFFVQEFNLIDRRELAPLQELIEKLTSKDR
# UniProt Q7Z4S6: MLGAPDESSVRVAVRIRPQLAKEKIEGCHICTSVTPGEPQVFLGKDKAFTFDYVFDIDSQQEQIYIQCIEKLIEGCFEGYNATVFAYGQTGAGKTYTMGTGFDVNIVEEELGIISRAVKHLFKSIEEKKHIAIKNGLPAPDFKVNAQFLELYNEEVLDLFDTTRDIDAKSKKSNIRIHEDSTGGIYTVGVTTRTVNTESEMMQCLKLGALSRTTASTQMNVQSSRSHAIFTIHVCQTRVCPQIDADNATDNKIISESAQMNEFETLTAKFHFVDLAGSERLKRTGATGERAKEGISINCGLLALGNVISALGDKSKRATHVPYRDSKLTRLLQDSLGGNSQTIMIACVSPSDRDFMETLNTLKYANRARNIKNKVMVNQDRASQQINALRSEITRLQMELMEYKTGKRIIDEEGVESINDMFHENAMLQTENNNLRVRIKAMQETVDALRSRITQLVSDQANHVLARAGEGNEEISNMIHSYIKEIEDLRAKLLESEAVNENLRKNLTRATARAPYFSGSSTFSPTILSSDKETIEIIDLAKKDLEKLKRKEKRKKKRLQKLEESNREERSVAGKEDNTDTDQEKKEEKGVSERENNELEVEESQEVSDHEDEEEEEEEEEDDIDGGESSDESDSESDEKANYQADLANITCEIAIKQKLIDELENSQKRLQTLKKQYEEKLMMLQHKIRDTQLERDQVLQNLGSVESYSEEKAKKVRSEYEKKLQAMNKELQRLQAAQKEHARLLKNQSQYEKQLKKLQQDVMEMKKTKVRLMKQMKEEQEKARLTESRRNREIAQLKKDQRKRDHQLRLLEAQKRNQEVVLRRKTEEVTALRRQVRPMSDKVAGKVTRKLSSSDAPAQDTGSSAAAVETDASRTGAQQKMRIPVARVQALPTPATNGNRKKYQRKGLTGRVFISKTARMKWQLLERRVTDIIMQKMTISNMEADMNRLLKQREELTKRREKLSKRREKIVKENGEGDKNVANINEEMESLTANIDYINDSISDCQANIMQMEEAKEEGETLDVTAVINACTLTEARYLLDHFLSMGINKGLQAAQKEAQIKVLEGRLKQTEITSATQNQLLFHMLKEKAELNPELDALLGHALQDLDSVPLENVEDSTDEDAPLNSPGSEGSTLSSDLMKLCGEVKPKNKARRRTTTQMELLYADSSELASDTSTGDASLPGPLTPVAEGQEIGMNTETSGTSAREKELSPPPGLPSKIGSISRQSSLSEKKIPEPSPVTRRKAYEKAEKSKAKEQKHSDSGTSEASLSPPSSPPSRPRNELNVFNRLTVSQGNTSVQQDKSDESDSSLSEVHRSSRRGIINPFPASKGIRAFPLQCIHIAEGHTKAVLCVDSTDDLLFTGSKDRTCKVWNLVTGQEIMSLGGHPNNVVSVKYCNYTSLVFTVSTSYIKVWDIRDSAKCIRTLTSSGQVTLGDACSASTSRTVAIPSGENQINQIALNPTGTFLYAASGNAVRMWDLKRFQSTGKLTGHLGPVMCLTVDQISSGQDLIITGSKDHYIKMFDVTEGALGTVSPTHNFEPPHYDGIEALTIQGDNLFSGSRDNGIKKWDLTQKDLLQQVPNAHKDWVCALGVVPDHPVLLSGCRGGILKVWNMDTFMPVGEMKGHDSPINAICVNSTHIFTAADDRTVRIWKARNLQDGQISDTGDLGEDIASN
# UniProt Q7Z4G4: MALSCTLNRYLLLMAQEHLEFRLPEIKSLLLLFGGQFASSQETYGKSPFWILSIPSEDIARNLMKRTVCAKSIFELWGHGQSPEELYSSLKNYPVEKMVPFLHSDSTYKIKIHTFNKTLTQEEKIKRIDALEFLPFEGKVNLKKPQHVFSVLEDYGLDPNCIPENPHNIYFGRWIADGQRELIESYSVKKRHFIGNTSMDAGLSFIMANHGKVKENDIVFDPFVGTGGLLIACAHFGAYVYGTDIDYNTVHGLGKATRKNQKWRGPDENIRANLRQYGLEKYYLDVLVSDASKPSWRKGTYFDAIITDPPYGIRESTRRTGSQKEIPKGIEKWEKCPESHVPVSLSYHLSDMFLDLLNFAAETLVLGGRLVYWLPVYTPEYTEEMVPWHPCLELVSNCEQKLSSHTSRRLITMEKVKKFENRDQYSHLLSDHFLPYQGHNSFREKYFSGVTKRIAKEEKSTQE
# UniProt Q70UQ0: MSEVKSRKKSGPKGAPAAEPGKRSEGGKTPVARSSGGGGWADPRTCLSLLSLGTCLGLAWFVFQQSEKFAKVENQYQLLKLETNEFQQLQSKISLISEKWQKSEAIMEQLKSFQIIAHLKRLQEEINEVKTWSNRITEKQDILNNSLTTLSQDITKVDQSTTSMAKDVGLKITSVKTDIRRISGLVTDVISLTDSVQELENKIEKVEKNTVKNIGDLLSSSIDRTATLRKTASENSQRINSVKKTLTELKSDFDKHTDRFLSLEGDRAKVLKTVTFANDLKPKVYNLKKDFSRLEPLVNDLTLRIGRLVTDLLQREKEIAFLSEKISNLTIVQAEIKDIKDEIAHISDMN
# UniProt Q7Z4Q2: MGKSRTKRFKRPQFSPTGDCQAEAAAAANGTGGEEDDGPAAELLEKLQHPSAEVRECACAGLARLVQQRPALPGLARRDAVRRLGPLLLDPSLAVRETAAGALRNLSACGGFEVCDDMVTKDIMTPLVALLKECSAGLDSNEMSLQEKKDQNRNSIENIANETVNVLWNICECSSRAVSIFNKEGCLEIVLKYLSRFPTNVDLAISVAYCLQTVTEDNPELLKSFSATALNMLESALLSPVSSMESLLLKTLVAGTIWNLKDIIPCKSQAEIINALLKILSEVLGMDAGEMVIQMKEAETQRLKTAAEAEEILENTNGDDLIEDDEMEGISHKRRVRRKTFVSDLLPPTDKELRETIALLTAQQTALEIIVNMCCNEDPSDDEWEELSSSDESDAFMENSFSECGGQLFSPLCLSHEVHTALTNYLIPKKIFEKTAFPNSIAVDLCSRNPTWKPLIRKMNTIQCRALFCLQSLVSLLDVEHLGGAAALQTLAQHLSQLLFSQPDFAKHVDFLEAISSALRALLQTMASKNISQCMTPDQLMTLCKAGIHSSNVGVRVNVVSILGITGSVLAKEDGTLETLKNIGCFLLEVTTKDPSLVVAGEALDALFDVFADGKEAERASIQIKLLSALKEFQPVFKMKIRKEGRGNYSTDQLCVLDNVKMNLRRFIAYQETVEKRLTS
# UniProt Q71SY5: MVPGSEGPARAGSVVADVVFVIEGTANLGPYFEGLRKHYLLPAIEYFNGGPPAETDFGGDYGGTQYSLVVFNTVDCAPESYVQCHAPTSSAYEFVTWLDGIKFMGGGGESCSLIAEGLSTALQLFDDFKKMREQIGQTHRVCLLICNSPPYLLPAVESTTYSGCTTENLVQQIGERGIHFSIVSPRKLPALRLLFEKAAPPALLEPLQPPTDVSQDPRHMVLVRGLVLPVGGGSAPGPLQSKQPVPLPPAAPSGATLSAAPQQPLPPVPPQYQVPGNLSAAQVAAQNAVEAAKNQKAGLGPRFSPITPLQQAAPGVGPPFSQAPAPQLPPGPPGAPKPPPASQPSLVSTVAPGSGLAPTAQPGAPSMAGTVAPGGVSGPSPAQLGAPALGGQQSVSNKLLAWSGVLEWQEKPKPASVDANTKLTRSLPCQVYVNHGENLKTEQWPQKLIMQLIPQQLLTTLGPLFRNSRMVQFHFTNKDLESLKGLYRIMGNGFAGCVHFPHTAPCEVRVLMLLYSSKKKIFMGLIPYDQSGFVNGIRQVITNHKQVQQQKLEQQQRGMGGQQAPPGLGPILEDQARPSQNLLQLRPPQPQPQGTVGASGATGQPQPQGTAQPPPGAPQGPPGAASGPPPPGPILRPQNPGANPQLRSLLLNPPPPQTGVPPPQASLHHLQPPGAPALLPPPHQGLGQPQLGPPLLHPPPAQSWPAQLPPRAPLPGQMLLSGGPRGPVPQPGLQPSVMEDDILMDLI
# UniProt Q7Z3B4: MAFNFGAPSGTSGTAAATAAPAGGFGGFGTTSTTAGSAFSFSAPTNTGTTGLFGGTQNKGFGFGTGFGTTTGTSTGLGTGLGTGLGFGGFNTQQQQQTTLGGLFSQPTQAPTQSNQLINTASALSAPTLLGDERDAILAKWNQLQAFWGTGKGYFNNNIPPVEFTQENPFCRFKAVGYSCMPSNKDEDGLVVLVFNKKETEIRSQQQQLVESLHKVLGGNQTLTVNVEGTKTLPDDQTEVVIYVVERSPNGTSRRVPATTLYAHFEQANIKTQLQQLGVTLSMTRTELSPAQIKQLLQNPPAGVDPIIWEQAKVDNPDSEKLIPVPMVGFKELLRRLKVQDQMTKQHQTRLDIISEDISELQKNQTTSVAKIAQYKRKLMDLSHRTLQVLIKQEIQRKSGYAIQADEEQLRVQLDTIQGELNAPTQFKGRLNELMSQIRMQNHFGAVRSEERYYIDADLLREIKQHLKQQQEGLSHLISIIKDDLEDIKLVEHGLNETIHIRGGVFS
# UniProt Q6ZN04: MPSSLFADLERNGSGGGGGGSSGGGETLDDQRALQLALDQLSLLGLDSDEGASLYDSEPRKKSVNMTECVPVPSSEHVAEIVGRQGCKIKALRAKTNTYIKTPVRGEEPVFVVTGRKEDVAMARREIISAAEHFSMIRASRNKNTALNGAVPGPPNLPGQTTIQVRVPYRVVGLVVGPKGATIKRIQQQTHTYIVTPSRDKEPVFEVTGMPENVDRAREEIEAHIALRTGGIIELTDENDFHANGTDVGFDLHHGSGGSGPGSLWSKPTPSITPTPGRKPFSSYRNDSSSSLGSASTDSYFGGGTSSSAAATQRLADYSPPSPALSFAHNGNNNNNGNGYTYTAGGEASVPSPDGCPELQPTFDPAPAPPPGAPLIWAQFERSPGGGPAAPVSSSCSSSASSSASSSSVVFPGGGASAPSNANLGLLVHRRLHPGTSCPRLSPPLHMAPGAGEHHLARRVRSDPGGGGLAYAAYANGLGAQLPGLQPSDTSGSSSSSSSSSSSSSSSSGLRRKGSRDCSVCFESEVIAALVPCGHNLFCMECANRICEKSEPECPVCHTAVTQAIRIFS
# The other results are listed elsewhere or left out. Small differences around the control level are noise.
# Compound: CN[C@@H]1C[C@H]2O[C@@](C)([C@@H]1OC)n1c3ccccc3c3c4c(c5c6ccccc6n2c5c31)C(=O)NC4 [staurosporine]
# Assay: log2 fold change of tryptic peptide abundance, ligand vs vehicle (limited proteolysis) (log2 ratio); higher = more trypsin-susceptible (destabilized)
# Conditions: ligand concentration: 20 uM; sample: K562 cleared lysate; digestion: 4 min, 22 C (HT-PELSA RT4min, Orbitrap Astral)
row,Target,log2 fold change
1,"UniProt Q7L9L4 (peptide sequence: HAEATLGSGNLR, peptide start residue: 31)",0.204
2,"MRPL21 (peptide sequence: VLLVGADNFTLLGKPLLGK, peptide start residue: 133) (UniProt Q7Z2W9)",-0.471
3,"KIF21A (peptide sequence: QVRPMSDKVAGK, peptide start residue: 836) (UniProt Q7Z4S6)",0.508
4,"TRMT11 (peptide sequence: EKYFSGVTKR, peptide start residue: 444) (UniProt Q7Z4G4)",0.817
5,"UniProt Q70UQ0 (peptide sequence: EIAFLSEK, peptide start residue: 318)",-0.119
6,"HEATR3 (peptide sequence: DIMTPLVALLK, peptide start residue: 122) (UniProt Q7Z4Q2)",-0.394
7,"MED25 (peptide sequence: EQIGQTHR, peptide start residue: 133) (UniProt Q71SY5)",0.13
8,"NUP54 (peptide sequence: SQQQQLVESLHK, peptide start residue: 204) (UniProt Q7Z3B4)",0.654
9,"MEX3B (peptide sequence: DKEPVFEVTGMPENVDR, peptide start residue: 200) (UniProt Q6ZN04)",-0.488
